According to patent US4675319A, “Antianaphylactic and antibronchospastic piperazinyl-(N-substituted phenyl)carboxamides, compositions and use” (Recordati S. A. Chemical and Pharmaceutical Company, priority 1985, dated 1987):
At least one compound was matched to its structure with a doubt left.

Test system: TXA2
Experiment: TXA2 inhibition in perfused guinea-pig lungs challenged with bradykinin (method of Berti et al)
Conditions: C = 5 μg/ml, bradykinin 0.25-0.5 μg
Procedure: The TXA2 inhibition was evaluated according to the method of Berti et al Brit. J. Pharmacol., 68, 467 (1980). Lungs from female or male guinea-pigs were perfused through the pulmonary artery with Krebs bicarbonate (5 ml/min, 37° C.). The pulmonary outflow superfused strips of rabbit mesenteric artery and rabbit aorta in cascade, in order to monitor TXA2 activity. These tissues were superfused with a mixture of receptor antagonist and indomethacin to […] their selectivity and sensitivity. Lungs were challenged with a single injection of bradykinin (0.25-0.5 μg) which is known to increase generation of TXA2 from the pulmonary tissue. The novel compounds of the invention were perfused at different concentrations through the lungs 30 and 60 minutes before agonists.
In the Table which follows, the results obtained utilizing the above tests are reported. The LD50 and the DE50 in the PCA test are expressed in […]. The DE50 for the antibronchospastic activity (BSP) is expressed in μm/kg i.v. (bronchospasm induced by histamine (H) and acetylcholine (A)). In the TXA2 test, (C) is the concentration in μg/ml, whereas (I%) denotes the maximal inhibition percentage. In the PLA test, the DE50 is expressed in μM/kg i.v. (evaluated 5 and 10 minutes after administration).

CN(C)c1ccc(NC(=O)CCN2CCN(C(c3ccccc3)c3ccccc3)CC2)cc1 [Compound 3, 3-(4-benzhydryl-1-piperazinyl)-N,4-dimethylaminophenylpropionamide]
TXA2 I % (maximal inhibition percentage): 59%
